No constants are given. Whether binding was seen depends on the method and setting. Binding seen in cells or lysates may run through a third protein. Here binding means that the protein was enriched with, or labelled near, the bait; the list need not be complete.
Experiments:
[1] = molecular target: BioID2-NICD (HEK293 stable line) (mouse) (UniProt Q01705); test: proximity labelling; BioID: BioID2-NICD stably expressed in HEK293 cells, 1 μg/ml doxycycline 24 h then 50 μM biotin 18 h; lysis in 8 M urea; streptavidin capture; LC-MS/MS; biological triplicate; hits in at least two of three samples and at least 3-fold over BioID2-only
[2] = molecular target: BioID2-NICD (NIH3T3 stable line) (mouse) (UniProt Q01705); test: proximity labelling; BioID: BioID2-NICD stably expressed in NIH3T3 cells, 1 μg/ml doxycycline 24 h then 50 μM biotin 18 h; lysis in 8 M urea; streptavidin capture; LC-MS/MS; biological triplicate; hits in at least two of three samples and at least 3-fold over BioID2-only
[3] = molecular target: BioID2-NICD (HEK293 or NIH3T3 stable line; the text does not tell which) (mouse) (UniProt Q01705); test: proximity labelling; BioID as in HEK293 and NIH3T3 stable lines; results told for the study as a whole (core-proximal proteins found in at least two of HEK293, 3T3 and BioGRID, and others) without naming the cell line

The chains behind the UniProt entries cited, without tags or fusion partners. Residues count along the entry.
UniProt Q01705, residues 1749-2293: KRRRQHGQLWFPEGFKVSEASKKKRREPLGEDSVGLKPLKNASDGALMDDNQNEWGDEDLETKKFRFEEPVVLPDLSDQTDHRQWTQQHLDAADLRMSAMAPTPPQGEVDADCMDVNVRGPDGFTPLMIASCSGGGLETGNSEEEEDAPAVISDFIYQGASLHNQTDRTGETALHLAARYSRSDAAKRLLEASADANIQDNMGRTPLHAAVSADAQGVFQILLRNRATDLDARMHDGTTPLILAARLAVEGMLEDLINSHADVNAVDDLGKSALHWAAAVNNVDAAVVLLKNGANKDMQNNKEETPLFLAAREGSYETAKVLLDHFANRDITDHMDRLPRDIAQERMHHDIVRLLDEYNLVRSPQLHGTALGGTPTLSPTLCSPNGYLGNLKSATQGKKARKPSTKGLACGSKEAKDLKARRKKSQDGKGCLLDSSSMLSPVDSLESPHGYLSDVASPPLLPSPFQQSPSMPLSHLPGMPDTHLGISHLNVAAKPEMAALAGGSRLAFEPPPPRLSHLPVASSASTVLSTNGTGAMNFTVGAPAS
UniProt Q8IZL2: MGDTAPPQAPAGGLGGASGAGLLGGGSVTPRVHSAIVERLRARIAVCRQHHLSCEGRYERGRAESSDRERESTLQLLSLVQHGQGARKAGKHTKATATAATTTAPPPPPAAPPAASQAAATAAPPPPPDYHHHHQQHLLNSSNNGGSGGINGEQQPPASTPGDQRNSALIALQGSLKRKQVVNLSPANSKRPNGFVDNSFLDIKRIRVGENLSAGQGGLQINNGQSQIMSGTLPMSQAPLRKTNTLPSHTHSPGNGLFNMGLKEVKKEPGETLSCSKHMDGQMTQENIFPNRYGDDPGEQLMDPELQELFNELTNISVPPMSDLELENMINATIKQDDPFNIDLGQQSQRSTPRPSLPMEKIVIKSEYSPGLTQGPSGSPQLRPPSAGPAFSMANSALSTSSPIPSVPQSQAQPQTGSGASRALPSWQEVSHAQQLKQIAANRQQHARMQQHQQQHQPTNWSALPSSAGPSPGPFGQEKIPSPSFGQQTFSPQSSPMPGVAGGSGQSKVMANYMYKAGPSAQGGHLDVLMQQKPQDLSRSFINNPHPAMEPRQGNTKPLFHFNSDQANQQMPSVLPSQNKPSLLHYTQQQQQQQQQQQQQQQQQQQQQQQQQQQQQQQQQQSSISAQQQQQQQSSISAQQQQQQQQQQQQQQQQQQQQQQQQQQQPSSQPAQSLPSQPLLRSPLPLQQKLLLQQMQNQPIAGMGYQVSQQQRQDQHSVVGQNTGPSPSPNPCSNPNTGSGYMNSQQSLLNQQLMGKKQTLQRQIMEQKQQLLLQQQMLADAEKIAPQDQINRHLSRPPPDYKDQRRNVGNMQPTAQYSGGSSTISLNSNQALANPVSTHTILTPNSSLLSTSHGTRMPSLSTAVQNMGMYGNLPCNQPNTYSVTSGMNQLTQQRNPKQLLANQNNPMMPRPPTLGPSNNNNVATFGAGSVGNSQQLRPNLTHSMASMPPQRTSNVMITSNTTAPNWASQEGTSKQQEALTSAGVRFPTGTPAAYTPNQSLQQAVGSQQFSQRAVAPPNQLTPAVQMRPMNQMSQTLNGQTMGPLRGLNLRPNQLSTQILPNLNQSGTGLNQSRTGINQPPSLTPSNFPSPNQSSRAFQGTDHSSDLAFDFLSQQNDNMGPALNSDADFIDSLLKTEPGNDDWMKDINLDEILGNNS
UniProt Q6P5D8: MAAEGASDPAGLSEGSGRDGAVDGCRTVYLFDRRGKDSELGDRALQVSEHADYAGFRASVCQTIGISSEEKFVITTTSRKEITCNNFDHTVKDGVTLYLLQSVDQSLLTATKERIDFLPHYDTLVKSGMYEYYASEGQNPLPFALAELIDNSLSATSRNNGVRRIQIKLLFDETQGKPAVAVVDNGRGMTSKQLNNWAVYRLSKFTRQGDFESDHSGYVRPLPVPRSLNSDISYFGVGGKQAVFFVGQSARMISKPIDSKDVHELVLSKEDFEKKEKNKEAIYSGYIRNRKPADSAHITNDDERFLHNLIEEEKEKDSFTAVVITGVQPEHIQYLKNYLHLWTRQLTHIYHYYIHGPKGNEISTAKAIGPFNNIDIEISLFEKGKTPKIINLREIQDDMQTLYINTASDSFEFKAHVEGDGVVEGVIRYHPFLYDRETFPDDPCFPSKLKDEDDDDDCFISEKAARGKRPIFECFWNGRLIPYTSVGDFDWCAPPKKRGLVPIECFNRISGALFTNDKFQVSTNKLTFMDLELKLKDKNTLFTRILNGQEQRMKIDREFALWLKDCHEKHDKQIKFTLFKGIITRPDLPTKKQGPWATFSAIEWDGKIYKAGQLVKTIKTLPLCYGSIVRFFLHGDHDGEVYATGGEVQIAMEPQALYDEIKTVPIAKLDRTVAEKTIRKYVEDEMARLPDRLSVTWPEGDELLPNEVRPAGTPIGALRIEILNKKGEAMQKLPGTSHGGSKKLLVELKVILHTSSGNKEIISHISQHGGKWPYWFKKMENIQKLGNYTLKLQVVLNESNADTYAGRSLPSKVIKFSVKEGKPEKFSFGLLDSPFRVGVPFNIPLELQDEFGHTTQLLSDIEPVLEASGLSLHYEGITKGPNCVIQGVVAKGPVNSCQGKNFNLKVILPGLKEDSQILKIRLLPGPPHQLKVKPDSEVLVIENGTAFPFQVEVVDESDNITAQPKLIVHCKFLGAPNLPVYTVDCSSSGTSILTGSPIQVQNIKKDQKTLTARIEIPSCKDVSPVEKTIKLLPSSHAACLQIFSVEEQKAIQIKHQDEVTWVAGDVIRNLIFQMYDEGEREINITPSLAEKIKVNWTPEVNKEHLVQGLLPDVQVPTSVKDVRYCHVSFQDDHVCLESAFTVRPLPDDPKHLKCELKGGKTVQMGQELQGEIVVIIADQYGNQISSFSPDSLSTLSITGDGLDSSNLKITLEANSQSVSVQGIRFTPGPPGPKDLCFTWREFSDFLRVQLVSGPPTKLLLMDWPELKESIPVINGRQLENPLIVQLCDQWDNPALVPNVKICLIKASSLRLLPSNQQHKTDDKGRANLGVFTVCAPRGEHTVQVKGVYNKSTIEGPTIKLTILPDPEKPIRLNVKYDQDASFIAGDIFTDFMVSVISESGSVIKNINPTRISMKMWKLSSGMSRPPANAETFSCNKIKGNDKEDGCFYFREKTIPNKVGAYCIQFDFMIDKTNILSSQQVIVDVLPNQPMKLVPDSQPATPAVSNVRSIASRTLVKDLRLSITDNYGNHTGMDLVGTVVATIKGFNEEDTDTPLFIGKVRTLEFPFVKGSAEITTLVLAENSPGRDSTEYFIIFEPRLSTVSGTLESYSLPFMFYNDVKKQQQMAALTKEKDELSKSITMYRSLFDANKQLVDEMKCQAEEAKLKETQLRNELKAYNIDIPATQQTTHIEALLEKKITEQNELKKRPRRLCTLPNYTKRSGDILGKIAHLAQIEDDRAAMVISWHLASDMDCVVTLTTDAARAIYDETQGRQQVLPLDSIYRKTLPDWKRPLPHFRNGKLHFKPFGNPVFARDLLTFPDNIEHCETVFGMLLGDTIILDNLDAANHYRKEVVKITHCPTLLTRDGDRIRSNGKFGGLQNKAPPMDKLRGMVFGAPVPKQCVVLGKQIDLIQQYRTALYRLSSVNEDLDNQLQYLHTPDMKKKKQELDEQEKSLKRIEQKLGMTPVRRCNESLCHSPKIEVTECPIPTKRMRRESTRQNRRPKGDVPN
UniProt Q8WXI9: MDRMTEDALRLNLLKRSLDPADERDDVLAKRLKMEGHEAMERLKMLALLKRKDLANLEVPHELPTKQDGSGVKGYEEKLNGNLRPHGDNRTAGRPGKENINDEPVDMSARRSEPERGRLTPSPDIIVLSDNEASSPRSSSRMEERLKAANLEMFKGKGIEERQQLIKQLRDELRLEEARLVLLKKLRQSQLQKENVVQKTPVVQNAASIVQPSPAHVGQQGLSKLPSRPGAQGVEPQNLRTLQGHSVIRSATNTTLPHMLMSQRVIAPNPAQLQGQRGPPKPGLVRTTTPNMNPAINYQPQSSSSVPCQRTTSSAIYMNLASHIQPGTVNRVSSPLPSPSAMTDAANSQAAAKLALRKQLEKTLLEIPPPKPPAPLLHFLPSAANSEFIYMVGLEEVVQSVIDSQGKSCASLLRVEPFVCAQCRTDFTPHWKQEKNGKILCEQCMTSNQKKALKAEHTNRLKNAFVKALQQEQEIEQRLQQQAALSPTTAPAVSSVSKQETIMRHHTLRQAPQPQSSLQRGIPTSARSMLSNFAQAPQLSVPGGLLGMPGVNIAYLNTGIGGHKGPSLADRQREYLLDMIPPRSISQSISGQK
UniProt Q8VHR5: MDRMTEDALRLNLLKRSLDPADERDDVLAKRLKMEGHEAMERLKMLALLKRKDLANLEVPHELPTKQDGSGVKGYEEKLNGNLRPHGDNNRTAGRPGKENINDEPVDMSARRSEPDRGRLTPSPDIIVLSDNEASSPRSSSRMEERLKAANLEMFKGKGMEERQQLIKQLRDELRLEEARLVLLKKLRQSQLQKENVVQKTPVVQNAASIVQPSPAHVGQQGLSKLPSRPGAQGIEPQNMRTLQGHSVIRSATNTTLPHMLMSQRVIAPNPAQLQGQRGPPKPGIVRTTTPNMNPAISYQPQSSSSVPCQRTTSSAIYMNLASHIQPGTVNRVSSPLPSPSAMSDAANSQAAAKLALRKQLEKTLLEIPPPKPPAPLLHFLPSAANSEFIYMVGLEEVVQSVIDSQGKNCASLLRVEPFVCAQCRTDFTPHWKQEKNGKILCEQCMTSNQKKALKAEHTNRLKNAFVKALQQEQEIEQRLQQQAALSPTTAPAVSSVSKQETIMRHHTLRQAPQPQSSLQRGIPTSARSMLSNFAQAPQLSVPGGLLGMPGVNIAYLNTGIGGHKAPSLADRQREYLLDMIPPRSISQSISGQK

Molecule | binding [2] | binding [3] | also measured
MAML2, human (from UniProt Q8IZL2 1-1156) |  |  | binding [1]: binds
SMCHD1, mouse (from UniProt Q6P5D8 1-2007) | binds |  | 
GATAD2B, human (from UniProt Q8WXI9 1-593) |  |  | binding [1]: binds
GATAD2B, mouse (from UniProt Q8VHR5 1-594) | binds |  | 
SNW1, mouse (protein, UniProt Q9CSN1 1-536) MALTSFLPAPTQLSQDQLEAEERARSQRSLQTSLVSSRREPPPYGYRKGWIPRLLEDFGDGGAFPEIHVAQYPLDMGRKKKMSNALAIQVDPEGKIKYDAIARQGQSKDKVIYSKYTDLVPKEVMNADDPDLQRPDEEAIKEITEKTRVALEKSVSQKVAAAMPVRAADKLAPAQYIRYTPSQQGVAFNSGAKQRVIRMVEMQKEPMEPPRFKINKKIPRGPPSPPAPVMHSPSRKMTVKEQQEWKIPPCISNWKNAKGYTIPIDKRLAADGRGLQTVHINENFAKLAEALYIADRKAREAVEMRAQVERKMAQKEKEKHEEKLREMAQKARERRAGIKTHVEKEDGEARERDEIRHDRRKERQHDRNLSRAAPDKRSKLQRNENRDISEVIALGVPNPRTSNEVQYDQRLFNQSKGMDSGFAGGEDEIYNVYDQAWRGGKDMAQSIYRPSKNLDKDMYGDDLEARIKTNRFVPDKEFSGSDRKQRGREGPVQFEEDPFGLDKFLEEAKQHGGSKRPSDSSRPKEHEHEGKKRRKE | binds |  | 
ZNF687 (protein, UniProt Q8N1G0 1-1237) MGDMKTPDFDDLLAAFDIPDIDANEAIHSGPEENEGPGGPGKPEPGVGSESEDTAAASAGDGPGVPAQASDHGLPPPDISVVSVIVKNTVCPEQSEALAGGSAGDGAQAAGVTKEGPVGPHRMQNGFGSPEPSLPGTPHSPAPPSGGTWKEKGMEGKTPLDLFAHFGPEPGDHSDPLPPSAPSPTREGALTPPPFPSSFELAQENGPGMQPPVSSPPLGALKQESCSPHHPQVLAQQGSGSSPKATDIPASASPPPVAGVPFFKQSPGHQSPLASPKVPVCQPLKEEDDDEGPVDKSSPGSPQSPSSGAEAADEDSNDSPASSSSRPLKVRIKTIKTSCGNITRTVTQVPSDPDPPAPLAEGAFLAEASLLKLSPATPTSEGPKVVSVQLGDGTRLKGTVLPVATIQNASTAMLMAASVARKAVVLPGGTATSPKMIAKNVLGLVPQALPKADGRAGLGTGGQKVNGASVVMVQPSKTATGPSTGGGTVISRTQSSLVEAFNKILNSKNLLPAYRPNLSPPAEAGLALPPTGYRCLECGDAFSLEKSLARHYDRRSMRIEVTCNHCARRLVFFNKCSLLLHAREHKDKGLVMQCSHLVMRPVALDQMVGQPDITPLLPVAVPPVSGPLALPALGKGEGAITSSAITTVAAEAPVLPLSTEPPAAPATSAYTCFRCLECKEQCRDKAGMAAHFQQLGPPAPGATSNVCPTCPMMLPNRCSFSAHQRMHKNRPPHVCPECGGNFLQANFQTHLREACLHVSRRVGYRCPSCSVVFGGVNSIKSHIQTSHCEVFHKCPICPMAFKSGPSAHAHLYSQHPSFQTQQAKLIYKCAMCDTVFTHKPLLSSHFDQHLLPQRVSVFKCPSCPLLFAQKRTMLEHLKNTHQSGRLEETAGKGAGGALLTPKTEPEELAVSQGGAAPATEESSSSSEEEEVPSSPEPPRPAKRPRRELGSKGLKGGGGGPGGWTCGLCHSWFPERDEYVAHMKKEHGKSVKKFPCRLCERSFCSAPSLRRHVRVNHEGIKRVYPCRYCTEGKRTFSSRLILEKHVQVRHGLQLGAQSPGRGTTLARGSSARAQGPGRKRRQSSDSCSEEPDSTTPPAKSPRGGPGSGGHGPLRYRSSSSTEQSLMMGLRVEDGAQQCLDCGLCFASPGSLSRHRFISHKKRRGVGKASALGLGDGEEEAPPSRSDPDGGDSPLPASGGPLTCKVCGKSCDSPLNLKTHFRTHGMAFIRARQGAVGDN |  | binds | 
replication factor C (RFC)1 (protein, UniProt P35251 1-1148) MDIRKFFGVIPSGKKLVSETVKKNEKTKSDEETLKAKKGIKEIKVNSSRKEDDFKQKQPSKKKRIIYDSDSESEETLQVKNAKKPPEKLPVSSKPGKISRQDPVTYISETDEEDDFMCKKAASKSKENGRSTNSHLGTSNMKKNEENTKTKNKPLSPIKLTPTSVLDYFGTGSVQRSNKKMVASKRKELSQNTDESGLNDEAIAKQLQLDEDAELERQLHEDEEFARTLAMLDEEPKTKKARKDTEAGETFSSVQANLSKAEKHKYPHKVKTAQVSDERKSYSPRKQSKYESSKESQQHSKSSADKIGEVSSPKASSKLAIMKRKEESSYKEIEPVASKRKENAIKLKGETKTPKKTKSSPAKKESVSPEDSEKKRTNYQAYRSYLNREGPKALGSKEIPKGAENCLEGLIFVITGVLESIERDEAKSLIERYGGKVTGNVSKKTNYLVMGRDSGQSKSDKAAALGTKIIDEDGLLNLIRTMPGKKSKYEIAVETEMKKESKLERTPQKNVQGKRKISPSKKESESKKSRPTSKRDSLAKTIKKETDVFWKSLDFKEQVAEETSGDSKARNLADDSSENKVENLLWVDKYKPTSLKTIIGQQGDQSCANKLLRWLRNWQKSSSEDKKHAAKFGKFSGKDDGSSFKAALLSGPPGVGKTTTASLVCQELGYSYVELNASDTRSKSSLKAIVAESLNNTSIKGFYSNGAASSVSTKHALIMDEVDGMAGNEDRGGIQELIGLIKHTKIPIICMCNDRNHPKIRSLVHYCFDLRFQRPRVEQIKGAMMSIAFKEGLKIPPPAMNEIILGANQDIRQVLHNLSMWCARSKALTYDQAKADSHRAKKDIKMGPFDVARKVFAAGEETAHMSLVDKSDLFFHDYSIAPLFVQENYIHVKPVAAGGDMKKHLMLLSRAADSICDGDLVDSQIRSKQNWSLLPAQAIYASVLPGELMRGYMTQFPTFPSWLGKHSSTGKHDRIVQDLALHMSLRTYSSKRTVNMDYLSLLRDALVQPLTSQGVDGVQDVVALMDTYYLMKEDFENIMEISSWGGKPSPFSKLDPKVKAAFTRAYNKEAHLTPYSLQAIKASRHSTSPSLDSEYNEELNEDDSQSDEKDQDAIETDAMIKKKTKSSKPSKPEKDKEPRKGKGKSSKK |  | binds | 
C11orf30 (protein, UniProt Q7Z589 1-1322) MPVVWPTLLDLSRDECKRILRKLELEAYAGVISALRAQGDLTKEKKDLLGELSKVLSISTERHRAEVRRAVNDERLTTIAHNMSGPNSSSEWSIEGRRLVPLMPRLVPQTAFTVTANAVANAAIQHNASLPVPAETGSKEVVCYSYTSTTSTPTSTPVPSGSIATVKSPRPASPASNVVVLPSGSTVYVKSVSCSDEDEKPRKRRRTNSSSSSPVVLKEVPKAVVPVSKTITVPVSGSPKMSNIMQSIANSLPPHMSPVKITFTKPSTQTTNTTTQKVIIVTTSPSSTFVPNILSKSHNYAAVTKLVPTSVIASTTQKPPVVITASQSSLVSNSSSGSSSSTPSPIPNTVAVTAVVSSTPSVVMSTVAQGVSTSAIKMASTRLPSPKSLVSAPTQILAQFPKQHQQSPKQQLYQVQQQTQQQVAQPSPVSHQQQPQQSPLPPGIKPTIQIKQESGVKIITQQVQPSKILPKPVTATLPTSSNSPIMVVSSNGAIMTTKLVTTPTGTQATYTRPTVSPSIGRMAATPGAATYVKTTSGSIITVVPKSLATLGGKIISSNIVSGTTTKITTIPMTSKPNVIVVQKTTGKGTTIQGLPGKNVVTTLLNAGGEKTIQTVPTGAKPAILTATRPITKMIVTQPKGIGSTVQPAAKIIPTKIVYGQQGKTQVLIKPKPVTFQATVVSEQTRQLVTETLQQASRVAEAGNSSIQEGKEEPQNYTDSSSSSTESSQSSQDSQPVVHVIASRRQDWSEHEIAMETSPTIIYQDVSSESQSATSTIKALLELQQTTVKEKLESKPRQPTIDLSQMAVPIQMTQEKRHSPESPSIAVVESELVAEYITTERTDEGTEVAFPLLVSHRSQPQQPSQPQRTLLQHVAQSQTATQTSVVVKSIPASSPGAITHIMQQALSSHTAFTKHSEELGTEEGEVEEMDTLDPQTGLFYRSALTQSQSAKQQKLSQPPLEQTQLQVKTLQCFQTKQKQTIHLQADQLQHKLPQMPQLSIRHQKLTPLQQEQAQPKPDVQHTQHPMVAKDRQLPTLMAQPPQTVVQVLAVKTTQQLPKLQQAPNQPKIYVQPQTPQSQMSLPASSEKQTASQVEQPIITQGSSVTKITFEGRQPPTVTKITGGSSVPKLTSPVTSISPIQASEKTAVSDILKMSLMEAQIDTNVEHMIVDPPKKALATSMLTGEAGSLPSTHMVVAGMANSTPQQQKCRESCSSPSTVGSSLTTRKIDPPAVPATGQFMRIQNVGQKKAEESPAEIIIQAIPQYAIPCHSSSNVVVEPSGLLELNNFTSQQLDDEETAMEQDIDSSTEDGTEPSPSQSSAERS |  | binds | 
PPIL4 (protein, UniProt Q8WUA2 1-492) MAVLLETTLGDVVIDLYTEERPRACLNFLKLCKIKYYNYCLIHNVQRDFIIQTGDPTGTGRGGESIFGQLYGDQASFFEAEKVPRIKHKKKGTVSMVNNGSDQHGSQFLITTGENLDYLDGVHTVFGEVTEGMDIIKKINETFVDKDFVPYQDIRINHTVILDDPFDDPPDLLIPDRSPEPTREQLDSGRIGADEEIDDFKGRSAEEVEEIKAEKEAKTQAILLEMVGDLPDADIKPPENVLFVCKLNPVTTDEDLEIIFSRFGPIRSCEVIRDWKTGESLCYAFIEFEKEEDCEKAFFKMDNVLIDDRRIHVDFSQSVAKVKWKGKGGKYTKSDFKEYEKEQDKPPNLVLKDKVKPKQDTKYDLILDEQAEDSKSSHSHTSKKHKKKTHHCSEEKEDEDYMPIKNTNQDIYREMGFGHYEEEESCWEKQKSEKRDRTQNRSRSRSRERDGHYSNSHKSKYQTDLYERERSKKRDRSRSPKKSKDKEKSKYR |  | binds | 

From paper PMC10788534
